Values quoted from earlier work, collected in patent US7671089B2 (XenoPort, Inc., priority 2004, dated 2010).
Where two headings read alike, the source gives them in different places.

Conditions: patients

half-life of levodopa in the plasma (administered alone): about 50 min
half-life of levodopa in the plasma (given with carbidopa): 1 to 2 h
SMILES: N[C@@H](Cc1ccc(O)c(O)c1)C(=O)O [levodopa, L-3,4-dihydroxyphenylalanine]
